Results deposited as PubChem BioAssay AID652259 (Drosophila RNAi Screening Center, 2013).
The deposit covers about 22,000 reagents; below is an unselected part of those with a known target gene and a result. Of all reagents, 233 (1.1%) are marked active. 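Light values are raw, unnormalised plate reads; the ratio scores behind the reporter calls were not deposited.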 Names joined by + are all predicted targets of the reagent. Not stated in the record: the amount of reagent, the time to read-out, the dose of the treatment.

Aim: 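Genome-wide hunt for genes that control Wingless pathway activity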 (primary screen)
System: Drosophila clone 8 imaginal disc epithelial cells
Knock-down reagent: long dsRNA against Drosophila genes
Treatment: pathway stimulated by co-transfected Wingless expression plasmid
Measurement: 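Firefly luciferase from a tcf-site Wingless reporter, measured alongside co-transfected Renilla luciferase that tracks transfection; pathway stimulated by a Wingless plasmid; the firefly-to-Renilla ratio is not deposited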
Reading the numbers: firefly reporter light: higher = more Wg reporter light, before normalisation; Renilla control light: higher = more transfected or surviving cells
Hit rule: 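a knock-down is a candidate when at least two out of four statistical tests show it departing from its plate mean; one test alone signals a weak candidate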
Calls: active = candidate regulator (raises or lowers reporter); inactive = not a candidate

Jhbp13 (Juvenile hormone binding protein 13) [DRSC02913]
- firefly reporter light, replicate 1: 4448
- firefly reporter light, replicate 2: 9440
- Renilla control light, replicate 1: 1319
- Renilla control light, replicate 2: 3137
- Call: inactive

alpha-Est8 (alpha-Esterase-8) [DRSC12620]
- firefly reporter light, replicate 1: 13159
- Renilla control light, replicate 1: 2928
- Call: inactive

Msr-110 [DRSC11227]
- firefly reporter light, replicate 1: 7808
- Renilla control light, replicate 1: 1705
- Call: inactive

CG10165 [DRSC02017]
- firefly reporter light, replicate 1: 10425
- Renilla control light, replicate 1: 3622
- Call: inactive

CG31454 [DRSC14365]
- firefly reporter light, replicate 1: 15853
- Renilla control light, replicate 1: 5703
- Call: inactive

CG31454 [DRSC22801]
- firefly reporter light, replicate 1: 5.22e5
- firefly reporter light, replicate 2: 5.66e5
- Renilla control light, replicate 1: 2.40e5
- Renilla control light, replicate 2: 3.12e5
- Call: inactive

RYa-R (RYamide receptor) [DRSC16757]
- firefly reporter light, replicate 1: 2535
- firefly reporter light, replicate 2: 8165
- Renilla control light, replicate 1: 1073
- Renilla control light, replicate 2: 2006
- Call: inactive

CG4982 [DRSC10465]
- firefly reporter light, replicate 1: 5032
- Renilla control light, replicate 1: 1255
- Call: inactive

2 entries from above, reduced to “firefly reporter light, replicate 1”:
Msr-110 [DRSC11227]: 7808
CG10165 [DRSC02017]: 10425

The listing continues.
CG31436 [DRSC14661]
- firefly reporter light, replicate 1: 20454
- Renilla control light, replicate 1: 14008
- Call: inactive

asRNA:CR30267 + CG42260 [DRSC03953]
- firefly reporter light, replicate 1: 15440
- Renilla control light, replicate 1: 8567
- Call: inactive

Pgm1 (Phosphoglucose mutase 1) [DRSC10490]
- firefly reporter light, replicate 1: 2449
- Renilla control light, replicate 1: 1219
- Call: inactive

boca [DRSC06408]
- firefly reporter light, replicate 1: 2482
- firefly reporter light, replicate 2: 7084
- Renilla control light, replicate 1: 855
- Renilla control light, replicate 2: 2467
- Call: inactive

Naxd (NAD(P)HX dehydratase) [DRSC09722]
- firefly reporter light, replicate 1: 4083
- Renilla control light, replicate 1: 1600
- Call: inactive

CG32625 [DRSC18994]
- firefly reporter light, replicate 1: 5076
- Renilla control light, replicate 1: 1124
- Call: inactive

Pcmt (Protein-L-isoaspartate (D-aspartate) O-methyltransferase) [DRSC12363]
- firefly reporter light, replicate 1: 22760
- Renilla control light, replicate 1: 5632
- Call: inactive

Rip11 (Rab11 interacting protein) [DRSC20000]
- reporter change call, replicate 1: Wg reporter activity lowered
- firefly reporter light, replicate 1: 698
- firefly reporter light, replicate 2: 3224
- Renilla control light, replicate 1: 603
- Renilla control light, replicate 2: 2328
- Call: active

scramb2 (scramblase 2) [DRSC08543]
- firefly reporter light, replicate 1: 8416
- Renilla control light, replicate 1: 2512
- Call: inactive

CG31924 [DRSC00689]
- firefly reporter light, replicate 1: 3115
- firefly reporter light, replicate 2: 6596
- Renilla control light, replicate 1: 1501
- Renilla control light, replicate 2: 2986
- Call: inactive

Elba1 (Early boundary activity 1) [DRSC00276]
- firefly reporter light, replicate 1: 2434
- firefly reporter light, replicate 2: 6103
- Renilla control light, replicate 1: 1296
- Renilla control light, replicate 2: 1360
- Call: inactive

CG11741 [DRSC14367]
- firefly reporter light, replicate 1: 13265
- Renilla control light, replicate 1: 4096
- Call: inactive

Gmppa (GDP-mannose pyrophosphorylase A) [DRSC07108]
- firefly reporter light, replicate 1: 6970
- Renilla control light, replicate 1: 2292
- Call: inactive

CG7202 [DRSC11818]
- firefly reporter light, replicate 1: 21096
- Renilla control light, replicate 1: 6715
- Call: inactive

Vhl (von Hippel-Lindau) [DRSC07716]
- firefly reporter light, replicate 1: 3861
- Renilla control light, replicate 1: 1938
- Call: inactive

spn-B (spindle B) [DRSC17063]
- firefly reporter light, replicate 1: 11763
- Renilla control light, replicate 1: 3504
- Call: inactive

ine (inebriated) [DRSC00822]
- firefly reporter light, replicate 1: 8964
- Renilla control light, replicate 1: 2992
- Call: inactive
